# Laboratory results from patent US8143221B2, “Use of ADNF polypeptides for treating peripheral neurotoxicity” (Ramot at Tel-Aviv University, priority 2005, dated 2012).
# At least one peptide structure holds a part that was inferred or is arguable (an end, a ring closure or a residue).
# System: neurotoxicity induced by the chemotherapeutic agent vincristine
# Assay: Randomized blind study of NAP with vincristine in patients with advanced carcinoma
# Format: in vivo, men and women
# Settings: NAP 15 mg/45-70 kg before vincristine infusion 1.4 mg/m^2, 6 cycles
smiles,measurement,value
"CC[C@H](C)[C@H](NC(=O)[C@H](CO)NC(=O)[C@@H](NC(=O)[C@@H]1CCCN1C(=O)[C@H](C)NC(=O)[C@@H](N)CC(N)=O)C(C)C)C(=O)N1CCC[C@H]1C(=O)N[C@@H](CCC(N)=O)C(=O)O [NAP, Asn-Ala-Pro-Val-Ser-Ile-Pro-Gln]","Neurotoxicity (nerve conduction, tendon reflexes, muscle strength, sensory perception, symptoms)",significantly reduce neurotoxicity
